Results are given in words; binding and its absence hold for the method and conditions named. For part of these data: Binding seen in cells or lysates may run through a third protein. Some binding calls cover weakened binding; strength is not graded here. For part of these data: Sequences can lack the tags named with a protein.
T1: Cluc-Apaf1 (Apaf-1 XL fused to the C-terminal fragment of firefly luciferase) (human), O14727
T1 chain: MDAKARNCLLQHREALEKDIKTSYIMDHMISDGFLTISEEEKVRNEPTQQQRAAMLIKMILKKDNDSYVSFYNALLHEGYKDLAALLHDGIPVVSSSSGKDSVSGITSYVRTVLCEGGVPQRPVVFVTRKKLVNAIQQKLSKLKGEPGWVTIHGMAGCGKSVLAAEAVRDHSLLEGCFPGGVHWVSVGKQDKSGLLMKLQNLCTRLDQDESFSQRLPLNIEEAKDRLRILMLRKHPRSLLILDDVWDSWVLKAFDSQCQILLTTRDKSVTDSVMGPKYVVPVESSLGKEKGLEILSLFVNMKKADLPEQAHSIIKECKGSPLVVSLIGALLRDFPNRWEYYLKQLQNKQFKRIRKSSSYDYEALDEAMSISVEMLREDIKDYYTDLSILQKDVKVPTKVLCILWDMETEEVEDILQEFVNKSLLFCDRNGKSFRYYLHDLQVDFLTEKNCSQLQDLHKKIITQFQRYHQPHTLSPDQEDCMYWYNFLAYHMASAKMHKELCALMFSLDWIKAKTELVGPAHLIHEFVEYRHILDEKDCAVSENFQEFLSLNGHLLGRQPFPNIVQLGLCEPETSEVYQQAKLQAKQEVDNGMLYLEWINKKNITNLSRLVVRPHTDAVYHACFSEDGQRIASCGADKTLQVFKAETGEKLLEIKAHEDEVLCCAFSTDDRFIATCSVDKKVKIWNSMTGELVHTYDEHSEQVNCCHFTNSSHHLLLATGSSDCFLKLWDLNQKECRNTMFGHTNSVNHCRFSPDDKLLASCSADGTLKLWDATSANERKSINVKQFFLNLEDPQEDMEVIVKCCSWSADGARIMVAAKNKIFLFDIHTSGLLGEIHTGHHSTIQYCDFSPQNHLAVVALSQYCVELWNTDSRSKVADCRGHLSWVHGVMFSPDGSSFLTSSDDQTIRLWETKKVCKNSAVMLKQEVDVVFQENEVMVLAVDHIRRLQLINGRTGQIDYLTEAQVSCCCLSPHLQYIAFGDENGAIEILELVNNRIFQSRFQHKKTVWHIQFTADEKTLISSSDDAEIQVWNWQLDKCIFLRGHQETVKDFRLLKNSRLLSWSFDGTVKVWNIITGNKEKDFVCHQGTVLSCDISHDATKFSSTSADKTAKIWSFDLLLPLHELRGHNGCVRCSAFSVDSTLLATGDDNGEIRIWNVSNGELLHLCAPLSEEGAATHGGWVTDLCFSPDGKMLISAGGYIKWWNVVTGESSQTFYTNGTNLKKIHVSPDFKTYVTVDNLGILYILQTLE


What was measured:
[1] = target: Purified recombinant Apaf-1 (rApaf-1) (human) (UniProt O14727); test: SEC; as a3, purified rApaf-1 with cytochrome c and dATP, plus 1 mM PCP (pentachlorophenol); gel filtration, dot blot with an anti-Apaf-1 antibody; both purified
[2] = target: T1, Cluc-Apaf1 (Apaf-1 XL fused to the …); test: SEC; 1 mL S-100 extract (untransfected HEK 293, or Nluc-Apaf1 and Cluc-Apaf1 extracts mixed 1:1) incubated for 15 min in the presence and absence of dATP/Cc, Sephacryl 300 HR column; fractions concentrated and immunoblotted for Apaf-1; conditions: remark: other sources report otherwise
[3] = target: T1, Cluc-Apaf1 (Apaf-1 XL fused to the …); test: split reporter; split firefly luciferase complementation; ice-cold S-100 extracts of Nluc-Apaf1 and Cluc-Apaf1 cells mixed 1:1, with and without 1.6 μM cytochrome c and 1 mM dATP (cytochrome c titrated in one experiment); One-Glo Luciferase Assay System, light read at 25 °C over 15 min; conditions: remark: other sources report otherwise

binding [1]	binding [2]	binding [3]	Molecule
no binding (condition: with 1 mM PCP)	–	–	Purified recombinant Apaf-1 (rApaf-1) (from UniProt O14727 1-1248)
–	binds	binds	Nluc-Apaf1 (Apaf-1 XL fused to the N-terminal fragment of firefly luciferase), O14727-1 1-1248 (natural protein) MDAKARNCLLQHREALEKDIKTSYIMDHMISDGFLTISEEEKVRNEPTQQQRAAMLIKMILKKDNDSYVSFYNALLHEGYKDLAALLHDGIPVVSSSSGKDSVSGITSYVRTVLCEGGVPQRPVVFVTRKKLVNAIQQKLSKLKGEPGWVTIHGMAGCGKSVLAAEAVRDHSLLEGCFPGGVHWVSVGKQDKSGLLMKLQNLCTRLDQDESFSQRLPLNIEEAKDRLRILMLRKHPRSLLILDDVWDSWVLKAFDSQCQILLTTRDKSVTDSVMGPKYVVPVESSLGKEKGLEILSLFVNMKKADLPEQAHSIIKECKGSPLVVSLIGALLRDFPNRWEYYLKQLQNKQFKRIRKSSSYDYEALDEAMSISVEMLREDIKDYYTDLSILQKDVKVPTKVLCILWDMETEEVEDILQEFVNKSLLFCDRNGKSFRYYLHDLQVDFLTEKNCSQLQDLHKKIITQFQRYHQPHTLSPDQEDCMYWYNFLAYHMASAKMHKELCALMFSLDWIKAKTELVGPAHLIHEFVEYRHILDEKDCAVSENFQEFLSLNGHLLGRQPFPNIVQLGLCEPETSEVYQQAKLQAKQEVDNGMLYLEWINKKNITNLSRLVVRPHTDAVYHACFSEDGQRIASCGADKTLQVFKAETGEKLLEIKAHEDEVLCCAFSTDDRFIATCSVDKKVKIWNSMTGELVHTYDEHSEQVNCCHFTNSSHHLLLATGSSDCFLKLWDLNQKECRNTMFGHTNSVNHCRFSPDDKLLASCSADGTLKLWDATSANERKSINVKQFFLNLEDPQEDMEVIVKCCSWSADGARIMVAAKNKIFLFDIHTSGLLGEIHTGHHSTIQYCDFSPQNHLAVVALSQYCVELWNTDSRSKVADCRGHLSWVHGVMFSPDGSSFLTSSDDQTIRLWETKKVCKNSAVMLKQEVDVVFQENEVMVLAVDHIRRLQLINGRTGQIDYLTEAQVSCCCLSPHLQYIAFGDENGAIEILELVNNRIFQSRFQHKKTVWHIQFTADEKTLISSSDDAEIQVWNWQLDKCIFLRGHQETVKDFRLLKNSRLLSWSFDGTVKVWNIITGNKEKDFVCHQGTVLSCDISHDATKFSSTSADKTAKIWSFDLLLPLHELRGHNGCVRCSAFSVDSTLLATGDDNGEIRIWNVSNGELLHLCAPLSEEGAATHGGWVTDLCFSPDGKMLISAGGYIKWWNVVTGESSQTFYTNGTNLKKIHVSPDFKTYVTVDNLGILYILQTLE

— article PMC6609562, “A new split‐luciferase complementation assay identifies pentachlorophenol as an inhibitor of apoptosome formation” (FEBS Open Bio, 2019)
